No constants are given. Whether binding was seen depends on the method and setting. Some results given as binding are weak or reduced against the parent protein; the word gives no strength.
How the values were obtained:
[1] = biological target: VEGF receptor (VEGFR2) (UniProt P35968); test: binding and competition with VEGF; method not described (FIGS. 11 and 13)
[2] = biological target: VEGF receptor (VEGFR2) (UniProt P35968); test: binding and competition with VEGF; method not described (FIGS. 12 and 14)

Chains of the proteins cited; added tags and fusions are not shown. Residues count along the entry.
UniProt P35968, residues 20-764: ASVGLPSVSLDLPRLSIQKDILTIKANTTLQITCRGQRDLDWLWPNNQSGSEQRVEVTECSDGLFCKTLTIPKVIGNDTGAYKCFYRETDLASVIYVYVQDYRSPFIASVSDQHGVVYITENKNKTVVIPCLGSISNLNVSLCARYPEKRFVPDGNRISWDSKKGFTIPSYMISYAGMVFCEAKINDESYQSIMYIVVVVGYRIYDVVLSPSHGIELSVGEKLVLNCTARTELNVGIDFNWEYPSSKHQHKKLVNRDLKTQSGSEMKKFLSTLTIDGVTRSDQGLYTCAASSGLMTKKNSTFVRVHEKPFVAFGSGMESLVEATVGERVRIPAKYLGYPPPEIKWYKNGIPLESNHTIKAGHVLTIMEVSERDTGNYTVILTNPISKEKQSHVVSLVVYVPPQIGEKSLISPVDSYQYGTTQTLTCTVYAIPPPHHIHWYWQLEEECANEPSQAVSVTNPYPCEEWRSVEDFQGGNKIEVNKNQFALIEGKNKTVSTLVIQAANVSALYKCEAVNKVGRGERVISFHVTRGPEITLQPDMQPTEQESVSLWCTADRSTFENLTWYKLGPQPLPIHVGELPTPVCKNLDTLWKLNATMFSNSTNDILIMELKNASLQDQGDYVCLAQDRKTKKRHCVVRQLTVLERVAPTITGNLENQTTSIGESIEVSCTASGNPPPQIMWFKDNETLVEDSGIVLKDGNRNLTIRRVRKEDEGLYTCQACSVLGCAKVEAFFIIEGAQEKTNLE

Row | binding [1] | binding [2] | Binder
1 | binds | – | NKNFGYDLYR [peptide having an amino acid sequence of SEQ ID NO: 1]
2 | – | binds | IHGTYKELL [peptide having an amino acid sequence of SEQ ID NO: 2]
